To fix the notation:
B1: Cue3 as imaged by HS-AFM in the Slh1/Cue3 complex (natural protein, S. cerevisiae, UniProt P53137 1-624, looked up)
chain: MLSRYNRVIEINGGNADISLPIVKFPPFKLRAQLIEKDPVVWLHLIETYVTYFEYLMQGANVELLDESTLDHLRLFLRTYLHEIADEEGKLLSLGINHDVSEQLYLLKGWIFSLIKKCGLLHLQIFGDSLWNLIKVYVRRNPDSIRGLIDGSLKPRINTQRVQLDKSYQVQQHLKQLIESGKFKRIDLRCVEDLLSAKSMQPNKFAENFFTANWIEILEALWAKGQGRGHKEARELIIISLFSVSADRLLKITKELGISNFETLALYPLLGTMLINEGVHKRLPDLKSKLLFLNLGGLSMDEGDHMSYPTSSGTEVNEEQLSALMELFPQFSKYQLSQTLLAYDNNIELVTNKIFEDPTIIEAFSREPAEEEVEPVSDGDNASFTEELSILDRGDSSKNKELDKKIISEGVPDELRNKTLTRALKLLYEADEDERDDTYDEADVNRSDPSKRIGLQEDEESYDTKDDSNEVRQDHNYHIVEAYLWNLLKEDPKLFERSKRGTKVRKTMKEMTSWSDEKIEGWCRMLERSPTRARLLEKKFMFKGNSKTGKTSYVHNRDSQNDGNVVKEQAKQKKSENIKKHEPQSTEQKKRQHAKNEKRKGARANHNRKKGHDKKLARAGNNAI
notes: Cue3 (RQT3), S. cerevisiae
B2: Rqt4 with the N-terminal domain (residues 3–70) deleted (Flag-tagged) (protein, UniProt P36119)
chain: MTNDKKEEKKTKNVHLEHTAPTSWKNESKQPTNNYINKKGDEKPKKLKDEKKSSTTRPTVQPSNQSTQSNPIKEKKEHRSKGKLQSLQEIDEAIKMLELRDSGSSKNCNCQGTRHPVFDIAPNCLHCGKVVCVIEGLNKGKCGHCHEQLISDNERTQMVEILNQEKNELNGSSSSLSNASNGANVPKKKTKTYKITSGMGKNLFAEQDKLFDFIERKRERERKRNEVLKLQEEKEESEAKERQASEHDHKAEENPELLAAQERLDRLLYFQDTSAERTKIIDNASDFDMNQEVGLWGSARERALALKKQQRNLRKWEKVEKERNGRREKYVVSMNIGSNGKVTMTEVPKDTENVIAGSDDDISDISDEEDISDLKHIHALKSEINTTKSLENLHLQSKAWDYERDKKQFDRPTYVKKNSDTAQQNRKTEEKAHDMQAYDLKSRVQVDQNADASVEQNILAVL
B3: Rqt4 with the zinc-finger domain (residues 145–240) deleted (Flag-tagged) (protein, UniProt P36119)
chain: MTRKQAIDYAIKQVPQILPLEESDVKALCEQVLSTSSDDPEQIASKFLEFLGHEDLSFEFVMKFNELLNQNDKKEEKKTKNVHLEHTAPTSWKNESKQPTNNYINKKGDEKPKKLKDEKKSSTTRPTVQPSNQSTQSNPIKEKKSSSLSNASNGANVPKKKTKTYKITSGMGKNLFAEQDKLFDFIERKRERERKRNEVLKLQEEKEESEAKERQASEHDHKAEENPELLAAQERLDRLLYFQDTSAERTKIIDNASDFDMNQEVGLWGSARERALALKKQQRNLRKWEKVEKERNGRREKYVVSMNIGSNGKVTMTEVPKDTENVIAGSDDDISDISDEEDISDLKHIHALKSEINTTKSLENLHLQSKAWDYERDKKQFDRPTYVKKNSDTAQQNRKTEEKAHDMQAYDLKSRVQVDQNADASVEQNILAVL
B4: Rqt4 as imaged by HS-AFM in the Slh1/Rqt4 complex (natural protein, S. cerevisiae, UniProt P36119 1-530, looked up)
chain: MTRKQAIDYAIKQVPQILPLEESDVKALCEQVLSTSSDDPEQIASKFLEFLGHEDLSFEFVMKFNELLNQNDKKEEKKTKNVHLEHTAPTSWKNESKQPTNNYINKKGDEKPKKLKDEKKSSTTRPTVQPSNQSTQSNPIKEKKEHRSKGKLQSLQEIDEAIKMLELRDSGSSKNCNCQGTRHPVFDIAPNCLHCGKVVCVIEGLNKGKCGHCHEQLISDNERTQMVEILNQEKNELNGSSSSLSNASNGANVPKKKTKTYKITSGMGKNLFAEQDKLFDFIERKRERERKRNEVLKLQEEKEESEAKERQASEHDHKAEENPELLAAQERLDRLLYFQDTSAERTKIIDNASDFDMNQEVGLWGSARERALALKKQQRNLRKWEKVEKERNGRREKYVVSMNIGSNGKVTMTEVPKDTENVIAGSDDDISDISDEEDISDLKHIHALKSEINTTKSLENLHLQSKAWDYERDKKQFDRPTYVKKNSDTAQQNRKTEEKAHDMQAYDLKSRVQVDQNADASVEQNILAVL
notes: Rqt4, S. cerevisiae

Protein sequences, listed by entry. Tags and fused reporters are not part of them.
UniProt P53327: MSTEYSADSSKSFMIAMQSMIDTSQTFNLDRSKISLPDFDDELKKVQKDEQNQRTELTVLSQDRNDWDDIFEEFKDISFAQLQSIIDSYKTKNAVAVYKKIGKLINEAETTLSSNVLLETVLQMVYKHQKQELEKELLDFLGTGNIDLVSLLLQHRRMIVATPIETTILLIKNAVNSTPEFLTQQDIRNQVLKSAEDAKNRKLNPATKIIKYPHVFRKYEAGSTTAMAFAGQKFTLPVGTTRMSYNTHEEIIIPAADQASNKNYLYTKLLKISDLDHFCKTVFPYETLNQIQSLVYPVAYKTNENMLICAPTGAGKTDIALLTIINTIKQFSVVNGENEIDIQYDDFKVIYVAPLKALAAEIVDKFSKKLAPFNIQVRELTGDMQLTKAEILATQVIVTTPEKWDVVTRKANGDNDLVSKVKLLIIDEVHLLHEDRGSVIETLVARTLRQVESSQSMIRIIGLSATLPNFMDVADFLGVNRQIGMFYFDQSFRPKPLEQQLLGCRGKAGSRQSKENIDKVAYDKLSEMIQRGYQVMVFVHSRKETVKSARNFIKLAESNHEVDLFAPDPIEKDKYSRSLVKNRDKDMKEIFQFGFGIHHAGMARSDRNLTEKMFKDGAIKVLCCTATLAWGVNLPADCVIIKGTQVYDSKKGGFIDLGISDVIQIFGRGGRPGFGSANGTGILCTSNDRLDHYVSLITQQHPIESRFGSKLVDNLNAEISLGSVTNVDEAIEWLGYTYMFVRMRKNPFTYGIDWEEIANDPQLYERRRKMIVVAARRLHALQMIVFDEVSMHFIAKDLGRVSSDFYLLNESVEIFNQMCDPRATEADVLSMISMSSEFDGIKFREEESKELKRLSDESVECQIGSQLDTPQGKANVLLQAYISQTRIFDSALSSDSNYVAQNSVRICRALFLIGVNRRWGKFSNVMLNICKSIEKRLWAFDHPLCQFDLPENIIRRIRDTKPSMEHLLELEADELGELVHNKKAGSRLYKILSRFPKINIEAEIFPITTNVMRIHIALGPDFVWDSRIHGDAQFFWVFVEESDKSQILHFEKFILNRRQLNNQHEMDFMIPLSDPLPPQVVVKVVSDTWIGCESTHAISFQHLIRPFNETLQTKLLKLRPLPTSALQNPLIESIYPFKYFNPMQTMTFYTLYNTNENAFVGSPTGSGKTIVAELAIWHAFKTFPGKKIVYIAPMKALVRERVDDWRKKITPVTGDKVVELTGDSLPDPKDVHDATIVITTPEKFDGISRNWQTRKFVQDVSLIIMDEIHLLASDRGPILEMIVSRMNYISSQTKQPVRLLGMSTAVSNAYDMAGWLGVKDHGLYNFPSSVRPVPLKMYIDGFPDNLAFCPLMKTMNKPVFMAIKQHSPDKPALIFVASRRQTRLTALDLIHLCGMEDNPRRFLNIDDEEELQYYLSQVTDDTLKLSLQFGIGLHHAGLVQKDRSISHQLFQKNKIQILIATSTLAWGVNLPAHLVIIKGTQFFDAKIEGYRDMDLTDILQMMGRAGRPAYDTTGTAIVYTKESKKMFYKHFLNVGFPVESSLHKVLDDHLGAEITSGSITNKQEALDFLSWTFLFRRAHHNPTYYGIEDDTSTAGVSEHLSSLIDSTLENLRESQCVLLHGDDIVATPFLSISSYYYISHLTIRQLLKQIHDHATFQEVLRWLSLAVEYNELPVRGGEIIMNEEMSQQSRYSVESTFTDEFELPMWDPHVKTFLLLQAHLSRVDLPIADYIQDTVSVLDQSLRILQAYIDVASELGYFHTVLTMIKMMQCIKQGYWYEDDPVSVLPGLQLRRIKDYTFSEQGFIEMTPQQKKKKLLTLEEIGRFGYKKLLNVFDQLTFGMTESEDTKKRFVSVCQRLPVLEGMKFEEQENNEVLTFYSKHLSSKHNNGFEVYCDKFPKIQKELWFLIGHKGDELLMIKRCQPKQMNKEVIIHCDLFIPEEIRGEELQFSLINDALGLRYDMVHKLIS

No constants are given. Whether binding was seen depends on the method and setting. Binding seen in cells or lysates may run through a third protein. Some entries that bind do so weakly or less than the wild type. Sequences can lack the tags named with a protein.

The assay has as its target Slh1-Flag-TEV-protein A (S. cerevisiae) (UniProt P53327). Put plainly: pull-down; RQT factors or mutants co-expressed in yeast; complex captured from the lysate via Slh1-Flag-TEV-protein A on IgG beads in RQT-R buffer (50 mM Tris pH 7.5, 100 mM NaCl, 2.5 mM MgCl2, 0.1% NP-40, 10% glycerol, 100 mM L-arginine); co-purified factors seen by CBB staining or anti-Flag blot.
For the molecule B1, the binding entry is recorded as “binds”.

B2: the binding result is on record as “binds”.

B3: the binding result was “no binding”.

Take B4: the binding entry was “binds”.

Values taken from publication PMC9831982 (Nature Communications, 2023).
